± gives the standard deviation of the averaged measurements. This is one part of the list. Single values are uncertain here, since repeats match poorly.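 Imaging of DAPI-stained nuclei was used to count cells; those without phalloidin-stained cytoplasm were treated as dead and excluded. Every well's count was divided by the median of same-plate vehicle wells, then averaged across two replicate plates.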

The source of these data is the supplement of paper PMC12462457.

For the experiment, the system named is OVCAR8. Put plainly: cell count relative to DMSO vehicle (fold change); higher = more surviving senescent cells (less killing). Conditions: senescence inducer: cisplatin 10 µM 48 h, then 6 d recovery (CP senescent), exposure time 24 h.

Take `COc1cc(/C=C/c2ccc(NC(=O)/C=C/c3cc(OC)c(OC)c(OC)c3)cc2)cc(OC)c1`: the cell count was determined as 1.4 ± 0.032 (compound dose 1 µM) and 1.47 ± 0.12 (compound dose 5 µM).

With `CNC(=O)c1cc(Oc2ccc(NC(=O)Nc3cc(C(C)(C)C)nn3-c3ccc4ncccc4c3)c(F)c2)ccn1` [Rebastinib (DCC-2036)], the cell count (compound dose 1 µM) worked out at 1.3 ± 0.013 and the cell count (compound dose 5 µM) is 0.957 ± 0.74.

As to `CC(C)=CCc1c(O)ccc(C(=O)/C=C/c2ccc(O)cc2)c1O` [Isobavachalcone], the cell count was 0.842 ± 0.049 (compound dose 1 µM) and 0.51 ± 0.35 (compound dose 5 µM).

With `COc1ccc(-c2cc(=O)c3c(O)c(OC)c(O[C@@H]4O[C@H](CO[C@@H]5O[C@@H](C)[C@H](O)[C@@H](O)[C@H]5O)[C@@H](O)[C@H](O)[C@H]4O)cc3o2)cc1`, the cell count runs as follows: (compound dose 1 µM) 0.971 ± 0.057; (compound dose 5 µM) 0.683 ± 0.086.

On to `O=C1N=C(N2CCN(CCO)CC2)S/C1=C\c1ccc(-c2ccccc2)cc1`, for which the cell count was 1.11 ± 0.17 (compound dose 1 µM) and 1.07 ± 0.29 (compound dose 5 µM).

The compound `CC1(C)C=Cc2cc(CCn3c4ccccc4c4ccccc43)cc(C=O)c2O1` came in with a cell count (compound dose 1 µM) of 0.669 ± 0.098 and a cell count (compound dose 5 µM) of 0.42 ± 0.068.

Regarding `COc1cc2c(=O)c(-c3ccc(O)cc3)coc2cc1O` [Glycitein], the cell count (compound dose 1 µM) turned out to be 1.06 ± 0.19 and the cell count (compound dose 5 µM) was 0.839 ± 0.06.

Take `C/C=C1\C(=O)C[C@H]2[C@@H]3CCC4=CC(=O)CC[C@]4(C)[C@H]3CC[C@]12C` [Guggulsterone]: the cell count came out at 1.02 ± 0.012 (compound dose 1 µM) and 0.841 ± 0.016 (compound dose 5 µM).

Take `CC(C)c1cc2c(cc1S(=O)(=O)O)[C@@]1(C)CCC[C@@](C)(C(=O)O)[C@@H]1CC2` [Ecabet (sodium)]: the cell count amounted to 1.05 ± 0.031 (compound dose 1 µM) and 1.21 ± 0.26 (compound dose 5 µM).

With `Nc1nc2[nH]cnc2c(=S)[nH]1`, the cell count is, setting by setting: (compound dose 1 µM) 0.795 ± 0.23; (compound dose 5 µM) 0.636 ± 0.22.

`O=C(/C=C/c1ccc(O)c(O)c1)O[C@@H]1[C@H](O)C[C@@](O)(C(=O)O)C[C@H]1OC(=O)/C=C/c1ccc(O)c(O)c1` (stereo in doubt) [3,4-Dicaffeoylquinic acid]: the cell count is, setting by setting: (compound dose 1 µM) 0.859 ± 0.18; (compound dose 5 µM) 1.06 ± 0.23.

Take `CC(NC(=O)C(Cc1ccccc1)NC(=O)OCc1ccccc1)C(=O)CF` (stereo not drawn): the cell count is, setting by setting: (compound dose 1 µM) 1.29 ± 0.072; (compound dose 5 µM) 1.09 ± 0.026.

As to `C=CCc1cccc(/C=N/NC(=O)CN2CCN(Cc3ccccc3)CC2)c1O`, the cell count by setting is: (compound dose 1 µM) 0.726 ± 0.011; (compound dose 5 µM) 0.905 ± 0.018.

With `Cc1cc(C)c(-c2n[nH]c(C)c2C)cc1C(=O)N1CC(c2ccc(C#N)cc2)C1`, the cell count (compound dose 1 µM) turned out to be 1.15 ± 0.17 and the cell count (compound dose 5 µM) amounted to 1.22 ± 0.43.

Compound `COc1cc2c(N3CCN(C(=O)Nc4ccc(OC(C)C)cc4)CC3)ncnc2cc1OCCCN1CCCCC1` [Tandutinib] showed a cell count (compound dose 1 µM) of 1.16 ± 0.12 and a cell count (compound dose 5 µM) of 1.09 ± 0.19.

As for `CC(C(=O)O)c1ccc(-c2ccccc2)c(F)c1` (stereo not drawn), the cell count reads like this: (compound dose 1 µM) 1.06 ± 0.2; (compound dose 5 µM) 1.15 ± 0.25.

In turn, `CN[C@@H](C)C(=O)N[C@H]1CN(C(=O)CC(C)C)CC[C@H]2CC[C@@H](C(=O)NC(c3ccccc3)c3ccccc3)N2C1=O` [Xevinapant] gave a cell count (compound dose 1 µM) of 0.738 ± 0.13 and a cell count (compound dose 5 µM) of 0.437 ± 0.045.

With `Cc1cc(=O)[nH]c(=S)[nH]1`, the cell count by setting is: (compound dose 1 µM) 0.933 ± 0.22; (compound dose 5 µM) 0.608 ± 0.16.

Turning to `CC[C@]1(O)C[C@H]2CN(CCc3c([nH]c4ccccc34)[C@@](C(=O)OC)(c3cc4c(cc3OC)N(C=O)[C@H]3[C@@](O)(C(=O)OC)[C@H](OC(C)=O)[C@]5(CC)C=CCN6CC[C@]43[C@@H]65)C2)C1` [Vincristine (sulfate)], the cell count was found to be 0.793 ± 0.069 (compound dose 1 µM) and 0.734 ± 0.069 (compound dose 5 µM).

With `CC(=O)Nc1ccc(C(=O)Nc2ccc(F)cc2N)cc1`, the cell count was determined as 0.901 ± 0.053 (compound dose 1 µM) and 0.957 ± 0.023 (compound dose 5 µM).

For the compound `Oc1ccc(/C=C/c2cc(O)cc(O)c2)cc1`, the cell count is, setting by setting: (compound dose 1 µM) 0.773 ± 0.088; (compound dose 5 µM) 0.745 ± 0.18.

`CCN(CC)CCNC(=O)c1c(C)[nH]c(/C=C2\C(=O)Nc3ccc(F)cc32)c1C` [Sunitinib]: the cell count was determined as 1.23 ± 0.27 (compound dose 1 µM) and 0.803 ± 0.29 (compound dose 5 µM).

Take `CCN(CC)CCNC(=O)c1c(C)[nH]c(/C=C2\C(=O)Nc3ccc(F)cc32)c1C` [Sunitinib Malate]: the cell count is, setting by setting: (compound dose 1 µM) 1.22 ± 0.044; (compound dose 5 µM) 0.498 ± 0.085.

For the compound `COc1cc([C@@H]2c3cc4c(cc3[C@@H](O[C@@H]3O[C@@H]5CO[C@@H](C)O[C@H]5[C@H](O)[C@H]3O)[C@H]3COC(=O)[C@H]23)OCO4)cc(OC)c1O` [Etoposide], the cell count was determined as 1.22 ± 0.19 (compound dose 1 µM) and 0.9125 ± 0.0021 (compound dose 5 µM).

As for `CN(C)C(=S)NN=C(c1ccccn1)c1ccccn1`, the cell count (compound dose 1 µM) amounted to 0.773 ± 0.12 and the cell count (compound dose 5 µM) stood at 0.929 ± 0.046.

As for `Cc1cc(O)c(-c2ccc([C@@H](C)CN)cc2)c2c1[nH]c(=O)c1sccc12`, the cell count by setting is: (compound dose 1 µM) 0.734 ± 0.11; (compound dose 5 µM) 0.902 ± 0.013.

`OC[C@H]1O[C@@H](Oc2cc(O)cc(/C=C/c3ccc(O)cc3)c2)[C@H](O)[C@@H](O)[C@@H]1O` [Polydatin] showed a cell count (compound dose 1 µM) of 1.19 ± 0.09 and a cell count (compound dose 5 µM) of 0.945 ± 0.17.

With `CCC(C)(C)C(=O)N(O)Cc1ccccc1`, the cell count by setting is: (compound dose 1 µM) 1.24 ± 0.19; (compound dose 5 µM) 0.964 ± 0.025.

`COc1ccc(F)c(F)c1C(=O)c1cnc(NC2CCN(S(C)(=O)=O)CC2)nc1N`: the cell count by setting is: (compound dose 1 µM) 1.22 ± 0.097; (compound dose 5 µM) 0.626 ± 0.11.

On to `Cc1ccc(C(C)C)cc1O` [Carvacrol], for which the cell count by setting is: (compound dose 1 µM) 1.02 ± 0.068; (compound dose 5 µM) 0.994 ± 0.025.

On to `CCN1CCN(Cc2ccc(NC(=O)c3ccc(C)c(Oc4ncnc5cc(OC)c(OC)cc45)c3)cc2C(F)(F)F)CC1`, for which the cell count is 0.952 ± 0.061 (compound dose 1 µM) and 0.638 ± 0.02 (compound dose 5 µM).

As to `O=C1OCCN1/N=C/c1ccc([N+](=O)[O-])o1` [Furazolidone], the cell count reads like this: (compound dose 1 µM) 1.19 ± 0.15; (compound dose 5 µM) 0.871 ± 0.018.

For `Cc1c(O)c(=O)ccn1C`, the cell count (compound dose 1 µM) stood at 1.16 ± 0.15 and the cell count (compound dose 5 µM) was 0.822 ± 0.064.

For `O=S(=O)(O)c1cc(O)ccc1O` [Calcium dobesilate], the cell count by setting is: (compound dose 1 µM) 1.04 ± 0.12; (compound dose 5 µM) 0.929 ± 0.092.
